Experimental data from US20070243194A1.
No constants are given. Whether binding was seen depends on the method and setting. Some results given as binding are weak or reduced against the parent protein; the word gives no strength.

Amino acid sequences for entries named in this document (tags omitted). A change or cut given only in a name is not applied to a line headed by its entry.
UniProt P08069: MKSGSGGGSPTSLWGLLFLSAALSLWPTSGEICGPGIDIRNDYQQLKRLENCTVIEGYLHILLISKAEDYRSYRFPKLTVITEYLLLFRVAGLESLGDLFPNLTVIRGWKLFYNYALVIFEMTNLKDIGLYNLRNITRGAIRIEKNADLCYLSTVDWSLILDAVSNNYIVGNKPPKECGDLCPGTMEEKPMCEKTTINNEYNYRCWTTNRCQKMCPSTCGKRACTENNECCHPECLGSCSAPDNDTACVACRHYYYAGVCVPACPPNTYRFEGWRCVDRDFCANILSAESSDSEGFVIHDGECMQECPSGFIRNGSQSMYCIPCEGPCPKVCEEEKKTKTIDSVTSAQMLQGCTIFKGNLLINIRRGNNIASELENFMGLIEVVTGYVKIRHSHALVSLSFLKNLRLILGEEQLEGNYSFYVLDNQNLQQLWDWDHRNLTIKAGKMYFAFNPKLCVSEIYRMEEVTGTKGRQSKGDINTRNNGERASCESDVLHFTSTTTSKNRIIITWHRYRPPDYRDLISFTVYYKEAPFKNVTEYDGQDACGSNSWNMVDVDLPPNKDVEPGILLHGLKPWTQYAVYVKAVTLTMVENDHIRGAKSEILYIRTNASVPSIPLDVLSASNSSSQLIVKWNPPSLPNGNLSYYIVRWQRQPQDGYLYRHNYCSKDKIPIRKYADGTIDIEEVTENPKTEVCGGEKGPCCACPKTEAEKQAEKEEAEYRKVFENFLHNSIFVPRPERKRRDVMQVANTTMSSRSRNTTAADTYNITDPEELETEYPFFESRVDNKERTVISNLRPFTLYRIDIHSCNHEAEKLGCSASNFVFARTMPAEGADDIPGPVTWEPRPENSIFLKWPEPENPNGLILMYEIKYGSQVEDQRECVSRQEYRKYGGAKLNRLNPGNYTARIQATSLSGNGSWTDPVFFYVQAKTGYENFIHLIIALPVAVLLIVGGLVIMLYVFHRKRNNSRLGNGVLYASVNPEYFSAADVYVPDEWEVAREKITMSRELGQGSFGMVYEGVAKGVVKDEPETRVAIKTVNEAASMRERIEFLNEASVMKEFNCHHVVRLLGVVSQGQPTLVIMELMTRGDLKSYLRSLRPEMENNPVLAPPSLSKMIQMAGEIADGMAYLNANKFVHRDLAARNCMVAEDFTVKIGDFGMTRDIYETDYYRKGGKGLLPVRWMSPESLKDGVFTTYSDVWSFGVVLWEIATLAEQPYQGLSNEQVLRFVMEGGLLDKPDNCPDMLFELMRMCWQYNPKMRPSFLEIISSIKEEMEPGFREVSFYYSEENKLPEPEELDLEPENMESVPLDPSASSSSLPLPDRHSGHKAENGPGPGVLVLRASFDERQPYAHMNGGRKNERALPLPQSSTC

Experiments:
[1] = target: human IGF-1R on cells (human) (UniProt P08069); assay: flow cytometry on IGF-1R/3T3 transfectants with parental 3T3 cells as control [b]
[2] = target: human IGF-1R on cells (human) (UniProt P08069); assay: flow cytometry, MCF-7 and IGF-1R/3T3 cells
[3] = target: human IGF-1R(1-903)-Fc (human) (UniProt P08069); assay: ELISA, IGF-1R.Fc coated
[4] = target: human IGF-1R(1-903)-Fc (human) (UniProt P08069); assay: solid-phase RIA; blocks binding of 125I-IGF-2 to immobilised IGF-1R-Fc [9.b.]
[5] = target: human IGF-1R on cells (human) (UniProt P08069); assay: flow cytometry on MCF-7 cells, anti-human IgG-RPE; x axis is the log of Ab conc. (nM) [a]
[6] = target: human IGF-1R(1-903)-Fc (human) (UniProt P08069); assay: ELISA on plates coated with soluble IGF-1R-Fc, anti-human kappa-HRP [b]
[7] = target: human IGF-1R(1-903)-Fc (human) (UniProt P08069); assay: SPR, antibody immobilised

Measured: binding

B1: M14-C03.G4.P.agly (antibody, human IgG4 S228P, kappa, V domains shown)
VH: EVQLLESGGGLVQPGGSLRLSCAASGFTFSKYMMSWVRQAPGKGLEWVSYISPSGGLTWYADSVKGRFTISRDNSKNTLYLQMNSLRAEDTAVYYCARDGARGYGMDVWGQGTTVTVSS
VL: DIQMTQSPATLSLSPGERATLSCRASQSVSSYLAWYQQKPGQAPRLLIYDASNRATGIPARFSGSGSGTDFTLTISSLEPEDFAVYYCQQRSNWPPEVTFGPGTKVDIKR
binds: [1] | [2] | [3] | [4] | [5] | [6] | [7]
